Measured values as given in patent US10828315B2 (Madrigal Pharmaceuticals, Inc., priority 2013, dated 2020).

Assay: Artificial membrane permeability assay (PAMPA)

Mass Retention (incubation 5 h, first table): 7.53% | Mass Retention (same protocol, second table): 2.63%
SMILES: NS(=O)(=O)c1cc(C(=O)O)c(NCc2ccco2)cc1Cl [Furosemide]
